Results on one compound are retold here after ChEMBL document CHEMBL1122673, “Synthesis of a novel series of (aryloxy)propanolamines: new selective beta 2-blocking agents” (J Med Chem, 1984).

pEC50: −log10 of the molar value.

The species entered for this test is Cavia porcellus. Nature of the test: In vitro evaluation on guinea pig trachea. EC50 which is the molar concentration required to give 50% inhibition of the isoproterenol response (1x10E-6M) was determined. In kind it is functional. The note with it: read-out: ED50 (the source's name). In outline:
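Isolated guinea pig tracheal spirals were held at 1.50 g initial tension (resting 0.4–0.6 g) in Tyrode at 37 °C, gassed with O2/CO2 95:5, and contracted with acetylcholine 3 × 10^-6 M. Antagonist was added 15 min before Ach. Isoproterenol 3 × 10^-8 to 3 × 10^-6 M was added at maximal contraction. EC50 came from four points, with ≥4 preparations per group.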

As to `CC(C)NCC(O)COc1cccc2ccccc12` (stereo unspecified) [PROPRANOLOL], the pEC50 is 8.00.
